Experimental data published in PMC9733932.

Legend:
[1] = system: CtINO80 A-module Arp8.1 N34A,Q35A,K36A,N37A,Y38A,K44A (Chaetomium thermophilum); experiment: fluorescence anisotropy; conditions: 2 mM Mg2+, sliding defect not explained by simple affinity loss; FA: 25 mM Hepes pH 8, 100 mM KCl, 2 mM MgCl2, 2% glycerol, 0.01% Triton X-100, 1 mM DTT, 5 nM DNA, room temp; recombinant protein; protein details: FLAG on Ino80; label: 5' 6-FAM on strand 1
[2] = system: CtINO80 A-module Arp8dN (Chaetomium thermophilum); experiment: fluorescence anisotropy; conditions: 2 mM Mg2+; FA: 25 mM Hepes pH 8, 100 mM KCl, 2 mM MgCl2, 2% glycerol, 0.01% Triton X-100, 1 mM DTT, 5 nM DNA, room temp; recombinant protein; protein details: FLAG on Ino80; label: 5' 6-FAM on strand 1

AATTGGTCGTAGCAAGCTCTAGCACCGCTTAAACGCACGTACGCGCTGTC (double strand) [50-bp anisotropy DNA]
binding result [1]: binds
binding result [2]: binds more weakly

The exact form of at least one protein or probe is not confirmed. For some assays here: Weaker means in comparison with the reference protein, sequence or condition of that experiment. For some assays here: At least one verdict rests on a figure or table, not on a statement of the authors.
